We go through one compound from PubChem BioAssay AID2071 (Sanford-Burnham Center for Chemical Genomics, 2009).

Each structure is given as a SMILES string. The list shows a part of the results.

The experiment can be described thus: NALP1 inflammasome inhibitors in reconstituted yeast, colorimetric, S. cerevisiae, triplicate retest (AID 2071). To be noted: S. cerevisiae NALP1/ASC/caspase-1 growth, X-gal OD620, 72 h, at 20 µM, stronger effect = higher value.
Usually inhibition stands for the percentage by which the read-out fell short of the control. `CCN1CCC(Nc2cccc(F)c2)CC1` came in with an inhibition of 4.3%.
